Measurements from the supplement of paper PMC10849652.
The list shows a part of the results.

Sequences of proteins named here, by UniProt entry; tags and fusion partners are left off. A change or cut given only in a name is not applied to a line headed by its entry.
UniProt Q8IYD1, whole entry, looked up: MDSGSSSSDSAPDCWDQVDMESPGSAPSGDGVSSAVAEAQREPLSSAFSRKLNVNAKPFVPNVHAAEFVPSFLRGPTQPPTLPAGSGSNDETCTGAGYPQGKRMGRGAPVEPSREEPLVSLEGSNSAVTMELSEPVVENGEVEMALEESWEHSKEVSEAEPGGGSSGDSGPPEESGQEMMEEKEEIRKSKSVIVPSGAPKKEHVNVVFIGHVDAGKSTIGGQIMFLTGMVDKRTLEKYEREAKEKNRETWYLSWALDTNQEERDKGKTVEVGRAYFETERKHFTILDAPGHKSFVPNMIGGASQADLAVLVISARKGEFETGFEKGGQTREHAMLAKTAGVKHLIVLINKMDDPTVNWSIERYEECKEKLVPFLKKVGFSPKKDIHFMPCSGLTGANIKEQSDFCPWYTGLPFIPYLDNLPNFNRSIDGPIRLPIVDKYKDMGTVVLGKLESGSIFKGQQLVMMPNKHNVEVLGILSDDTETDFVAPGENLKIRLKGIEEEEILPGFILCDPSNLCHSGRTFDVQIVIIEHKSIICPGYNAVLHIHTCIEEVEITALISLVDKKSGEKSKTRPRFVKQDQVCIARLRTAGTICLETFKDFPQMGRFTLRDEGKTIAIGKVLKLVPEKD
UniProt P78417: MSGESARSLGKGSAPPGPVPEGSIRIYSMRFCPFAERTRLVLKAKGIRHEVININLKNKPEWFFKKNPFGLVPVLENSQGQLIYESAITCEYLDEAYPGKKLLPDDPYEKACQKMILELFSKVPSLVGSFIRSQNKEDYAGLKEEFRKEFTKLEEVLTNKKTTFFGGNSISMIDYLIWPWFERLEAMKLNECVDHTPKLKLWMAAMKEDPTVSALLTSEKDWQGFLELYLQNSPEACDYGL
UniProt Q969F1: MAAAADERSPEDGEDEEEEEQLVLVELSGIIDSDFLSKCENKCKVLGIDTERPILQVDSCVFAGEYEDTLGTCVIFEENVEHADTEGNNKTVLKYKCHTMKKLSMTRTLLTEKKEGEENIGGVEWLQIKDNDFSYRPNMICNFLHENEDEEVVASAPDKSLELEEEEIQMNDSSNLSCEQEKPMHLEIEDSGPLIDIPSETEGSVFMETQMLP
UniProt Q9Y3E1: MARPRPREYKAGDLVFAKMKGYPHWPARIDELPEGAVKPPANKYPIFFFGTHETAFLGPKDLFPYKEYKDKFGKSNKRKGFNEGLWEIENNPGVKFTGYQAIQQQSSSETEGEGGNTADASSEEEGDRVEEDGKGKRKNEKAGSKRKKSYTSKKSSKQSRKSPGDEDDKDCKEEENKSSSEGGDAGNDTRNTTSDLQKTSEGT
UniProt Q92759: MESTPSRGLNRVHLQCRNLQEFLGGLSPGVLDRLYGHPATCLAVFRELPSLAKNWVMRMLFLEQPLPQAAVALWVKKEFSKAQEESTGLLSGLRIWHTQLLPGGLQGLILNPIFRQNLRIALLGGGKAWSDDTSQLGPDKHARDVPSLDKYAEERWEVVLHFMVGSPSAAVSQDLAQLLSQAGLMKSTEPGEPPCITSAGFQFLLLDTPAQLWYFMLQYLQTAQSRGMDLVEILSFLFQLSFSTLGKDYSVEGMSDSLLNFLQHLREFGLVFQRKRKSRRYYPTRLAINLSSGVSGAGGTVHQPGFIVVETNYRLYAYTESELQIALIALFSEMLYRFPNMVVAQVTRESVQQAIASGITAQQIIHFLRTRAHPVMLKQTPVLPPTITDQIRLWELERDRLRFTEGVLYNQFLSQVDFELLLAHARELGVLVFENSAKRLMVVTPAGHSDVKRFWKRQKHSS
UniProt P21266: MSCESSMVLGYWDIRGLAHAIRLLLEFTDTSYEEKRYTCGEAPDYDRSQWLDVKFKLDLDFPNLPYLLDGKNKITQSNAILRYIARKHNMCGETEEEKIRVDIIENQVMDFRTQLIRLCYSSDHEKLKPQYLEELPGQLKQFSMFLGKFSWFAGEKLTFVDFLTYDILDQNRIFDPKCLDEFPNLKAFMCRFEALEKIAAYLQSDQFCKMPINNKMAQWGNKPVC
UniProt Q7Z4H7: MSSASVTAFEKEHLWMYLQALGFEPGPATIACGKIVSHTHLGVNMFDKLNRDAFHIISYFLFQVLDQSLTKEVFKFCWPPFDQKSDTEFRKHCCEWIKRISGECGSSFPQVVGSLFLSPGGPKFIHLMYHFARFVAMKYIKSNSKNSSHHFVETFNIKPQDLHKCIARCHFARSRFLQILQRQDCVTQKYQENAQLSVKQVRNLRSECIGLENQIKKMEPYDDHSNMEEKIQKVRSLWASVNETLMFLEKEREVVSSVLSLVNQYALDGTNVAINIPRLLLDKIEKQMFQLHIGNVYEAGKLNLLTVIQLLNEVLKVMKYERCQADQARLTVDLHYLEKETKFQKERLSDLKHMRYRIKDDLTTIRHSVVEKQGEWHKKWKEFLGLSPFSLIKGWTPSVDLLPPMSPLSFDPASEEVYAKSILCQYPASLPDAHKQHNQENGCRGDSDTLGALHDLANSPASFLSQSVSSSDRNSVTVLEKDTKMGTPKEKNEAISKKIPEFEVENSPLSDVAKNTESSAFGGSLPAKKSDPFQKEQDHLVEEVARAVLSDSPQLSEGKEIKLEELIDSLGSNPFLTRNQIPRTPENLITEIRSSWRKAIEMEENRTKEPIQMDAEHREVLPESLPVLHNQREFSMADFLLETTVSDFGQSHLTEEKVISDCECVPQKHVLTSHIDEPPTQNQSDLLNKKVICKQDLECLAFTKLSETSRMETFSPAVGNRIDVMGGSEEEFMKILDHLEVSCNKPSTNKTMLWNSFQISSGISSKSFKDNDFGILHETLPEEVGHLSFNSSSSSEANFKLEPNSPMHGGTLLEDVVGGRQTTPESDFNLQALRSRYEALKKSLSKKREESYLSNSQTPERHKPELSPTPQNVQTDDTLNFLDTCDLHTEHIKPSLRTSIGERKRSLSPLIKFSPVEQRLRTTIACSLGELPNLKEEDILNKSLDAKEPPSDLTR
UniProt Q9Y5Z4: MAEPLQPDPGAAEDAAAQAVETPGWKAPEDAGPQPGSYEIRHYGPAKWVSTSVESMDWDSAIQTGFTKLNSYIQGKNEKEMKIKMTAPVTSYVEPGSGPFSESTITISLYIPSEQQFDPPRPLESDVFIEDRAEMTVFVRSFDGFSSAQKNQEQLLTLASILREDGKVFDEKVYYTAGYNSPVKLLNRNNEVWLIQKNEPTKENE
UniProt P46439: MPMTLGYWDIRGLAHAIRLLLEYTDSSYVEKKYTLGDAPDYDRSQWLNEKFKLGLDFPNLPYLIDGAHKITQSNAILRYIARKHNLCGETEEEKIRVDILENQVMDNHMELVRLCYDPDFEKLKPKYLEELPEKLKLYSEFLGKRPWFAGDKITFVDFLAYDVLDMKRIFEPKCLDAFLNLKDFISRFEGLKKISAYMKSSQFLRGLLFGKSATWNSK
UniProt Q12789: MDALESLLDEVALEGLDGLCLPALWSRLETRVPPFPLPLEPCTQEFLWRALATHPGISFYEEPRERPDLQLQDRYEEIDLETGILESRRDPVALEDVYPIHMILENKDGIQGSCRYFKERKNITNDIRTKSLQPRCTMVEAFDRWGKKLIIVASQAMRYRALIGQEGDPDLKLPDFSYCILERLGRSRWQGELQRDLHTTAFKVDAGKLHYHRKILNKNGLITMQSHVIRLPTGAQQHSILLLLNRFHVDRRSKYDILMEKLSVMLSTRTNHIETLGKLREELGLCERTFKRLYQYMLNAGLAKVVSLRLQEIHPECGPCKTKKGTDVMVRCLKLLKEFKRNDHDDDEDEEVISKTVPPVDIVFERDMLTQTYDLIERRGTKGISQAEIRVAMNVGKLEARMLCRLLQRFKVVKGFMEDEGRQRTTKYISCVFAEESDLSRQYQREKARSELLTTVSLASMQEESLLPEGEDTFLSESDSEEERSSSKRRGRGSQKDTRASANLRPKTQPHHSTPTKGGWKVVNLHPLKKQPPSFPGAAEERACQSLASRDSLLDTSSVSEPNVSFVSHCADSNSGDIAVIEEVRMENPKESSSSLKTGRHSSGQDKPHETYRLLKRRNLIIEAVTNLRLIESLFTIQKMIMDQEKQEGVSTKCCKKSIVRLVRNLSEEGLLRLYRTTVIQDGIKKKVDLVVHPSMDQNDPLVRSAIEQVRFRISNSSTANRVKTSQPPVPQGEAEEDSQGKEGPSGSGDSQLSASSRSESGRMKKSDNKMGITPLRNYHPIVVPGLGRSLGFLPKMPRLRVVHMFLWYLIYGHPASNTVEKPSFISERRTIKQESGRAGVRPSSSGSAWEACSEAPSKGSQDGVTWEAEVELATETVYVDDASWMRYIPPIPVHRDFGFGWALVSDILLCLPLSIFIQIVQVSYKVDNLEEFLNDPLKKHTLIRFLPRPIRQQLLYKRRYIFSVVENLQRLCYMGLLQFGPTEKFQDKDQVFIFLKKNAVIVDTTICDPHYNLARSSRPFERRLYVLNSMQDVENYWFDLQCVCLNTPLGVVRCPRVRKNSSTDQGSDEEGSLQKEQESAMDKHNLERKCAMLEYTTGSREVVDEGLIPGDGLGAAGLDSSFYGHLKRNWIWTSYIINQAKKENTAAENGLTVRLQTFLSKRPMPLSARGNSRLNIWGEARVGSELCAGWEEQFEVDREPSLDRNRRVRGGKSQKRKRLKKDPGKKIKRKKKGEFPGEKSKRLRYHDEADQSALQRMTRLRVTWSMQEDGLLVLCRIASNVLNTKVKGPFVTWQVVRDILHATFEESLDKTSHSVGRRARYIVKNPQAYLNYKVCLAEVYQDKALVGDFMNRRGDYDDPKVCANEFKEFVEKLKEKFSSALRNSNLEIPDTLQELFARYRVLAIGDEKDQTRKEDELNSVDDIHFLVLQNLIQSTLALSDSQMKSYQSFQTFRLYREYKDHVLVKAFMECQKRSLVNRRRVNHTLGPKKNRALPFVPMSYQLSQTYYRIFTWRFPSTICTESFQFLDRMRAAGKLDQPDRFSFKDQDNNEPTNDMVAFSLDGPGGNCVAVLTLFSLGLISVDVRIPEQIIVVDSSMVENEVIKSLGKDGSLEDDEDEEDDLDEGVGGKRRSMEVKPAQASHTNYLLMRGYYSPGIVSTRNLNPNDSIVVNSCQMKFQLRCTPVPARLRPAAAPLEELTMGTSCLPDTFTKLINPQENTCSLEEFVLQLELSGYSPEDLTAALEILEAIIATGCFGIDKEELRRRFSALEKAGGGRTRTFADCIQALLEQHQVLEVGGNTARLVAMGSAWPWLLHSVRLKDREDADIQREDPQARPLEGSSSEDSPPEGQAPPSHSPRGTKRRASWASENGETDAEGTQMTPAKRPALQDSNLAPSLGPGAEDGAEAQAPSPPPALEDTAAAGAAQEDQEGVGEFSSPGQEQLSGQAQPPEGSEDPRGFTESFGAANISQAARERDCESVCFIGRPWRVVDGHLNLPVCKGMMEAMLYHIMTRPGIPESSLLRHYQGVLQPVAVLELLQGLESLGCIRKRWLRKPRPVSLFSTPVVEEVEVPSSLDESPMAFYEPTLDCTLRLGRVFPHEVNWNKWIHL
UniProt Q5GLZ8: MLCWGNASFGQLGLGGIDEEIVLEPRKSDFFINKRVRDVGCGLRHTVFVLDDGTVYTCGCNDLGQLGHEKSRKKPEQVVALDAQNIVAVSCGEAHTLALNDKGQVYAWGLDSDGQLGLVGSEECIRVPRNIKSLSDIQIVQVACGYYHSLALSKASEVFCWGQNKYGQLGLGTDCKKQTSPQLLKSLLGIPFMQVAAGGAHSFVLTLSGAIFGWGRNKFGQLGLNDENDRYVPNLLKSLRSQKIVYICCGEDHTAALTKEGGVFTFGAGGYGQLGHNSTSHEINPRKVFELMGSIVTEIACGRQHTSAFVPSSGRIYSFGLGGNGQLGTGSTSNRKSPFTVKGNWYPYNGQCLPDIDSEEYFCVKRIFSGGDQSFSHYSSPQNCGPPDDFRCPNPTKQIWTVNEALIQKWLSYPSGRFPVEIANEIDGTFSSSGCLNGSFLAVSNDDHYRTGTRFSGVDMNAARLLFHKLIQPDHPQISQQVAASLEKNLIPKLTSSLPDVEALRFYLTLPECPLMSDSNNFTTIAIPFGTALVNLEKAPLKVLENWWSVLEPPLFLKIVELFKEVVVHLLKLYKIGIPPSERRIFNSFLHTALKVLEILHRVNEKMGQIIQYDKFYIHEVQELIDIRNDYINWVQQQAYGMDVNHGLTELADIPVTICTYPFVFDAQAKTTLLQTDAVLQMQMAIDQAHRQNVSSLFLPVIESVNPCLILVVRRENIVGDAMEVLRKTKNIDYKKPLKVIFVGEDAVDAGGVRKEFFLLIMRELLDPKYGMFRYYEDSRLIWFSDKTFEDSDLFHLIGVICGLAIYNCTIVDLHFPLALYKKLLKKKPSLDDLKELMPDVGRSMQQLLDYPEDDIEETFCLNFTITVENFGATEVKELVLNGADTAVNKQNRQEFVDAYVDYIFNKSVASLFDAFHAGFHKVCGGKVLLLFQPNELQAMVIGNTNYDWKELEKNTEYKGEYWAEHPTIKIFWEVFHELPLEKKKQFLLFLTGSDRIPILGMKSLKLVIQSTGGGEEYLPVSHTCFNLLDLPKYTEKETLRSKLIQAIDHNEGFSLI

Columns and labels:
Assay in all cases: log2 fold change, soluble protein after heating vs DMSO (PISA); higher = thermal stabilisation; K562 cells, 10 uM, 30 min; active = over 0.2 and 3.5 SD of the protein, either way, in both replicates (recomputed)
saracatinib = compound: CN1CCN(CCOc2cc(OC3CCOCC3)c3c(Nc4c(Cl)ccc5c4OCO5)ncnc3c2)CC1 [saracatinib]
Method in brief: (§1)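 Quantification of soluble protein used TMTpro 16plex LC-MS/MS, with channel sums equalised. Samples were the supernatant after 21,000xg for 90 min of pooled aliquots from K562 cells (2×10^6 cells/mL) treated with 10 μM compound for 30 min, heated for 3 min over 48°C-58°C, and extracted in PBS with 0.5% NP-40 at 4°C. Values, from duplicates, describe thermal stability against control samples on a log2 fold-change scale.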

sotrastaurin = compound: CN1CCN(c2nc(C3=C(c4c[nH]c5ccccc45)C(=O)NC3=O)c3ccccc3n2)CC1 [sotrastaurin]
Method in brief: as §1

alvocidib = compound: CN1CC[C@H](c2c(O)cc(O)c3c(=O)cc(-c4ccccc4Cl)oc23)[C@H](O)C1 [alvocidib]
Method in brief: as §1

Tubastatin A = compound: CN1CCc2c(c3ccccc3n2Cc2ccc(C(=O)NO)cc2)C1 [Tubastatin A]
Method in brief: as §1

[1] = compound: CNC(=O)C1=CC=CC=C1NC2=NC(=NC=C2Cl)NC3=C(C=C(C=C3)N4CCOCC4)OC
Method in brief: as §1

rucaparib = compound: CNCc1ccc(-c2[nH]c3cc(F)cc4c3c2CCNC4=O)cc1 [rucaparib]
Method in brief: as §1

[2] = compound: CNc1nc(-c2ccc3c(N)n[nH]c3c2)cc(N2C[C@@H](C(=O)NC3CCCCC3)CC[C@H]2C)n1
Method in brief: as §1

encorafenib = compound: COC(=O)N[C@@H](C)CNc1nccc(-c2cn(C(C)C)nc2-c2cc(Cl)cc(NS(C)(=O)=O)c2F)n1 [encorafenib]
Method in brief: as §1

filanesib = compound: CON(C)C(=O)N1N=C(c2cc(F)ccc2F)S[C@@]1(CCCN)c1ccccc1 [filanesib]
Method in brief: as §1

zotarolimus = compound: CO[C@H]1C[C@@H]2CC[C@@H](C)[C@@](O)(O2)C(=O)C(=O)N2CCCC[C@H]2C(=O)O[C@H]([C@H](C)C[C@@H]2CC[C@H](n3cnnn3)[C@H](OC)C2)CC(=O)[C@H](C)/C=C(\C)[C@@H](O)[C@@H](OC)C(=O)[C@H](C)C[C@H](C)/C=C/C=C/C=C/1C [zotarolimus]
Method in brief: as §1

idasanutlin = compound: COc1cc(C(=O)O)ccc1NC(=O)[C@@H]1N[C@@H](CC(C)(C)C)[C@](C#N)(c2ccc(Cl)cc2F)[C@H]1c1cccc(Cl)c1F [idasanutlin]
Method in brief: as §1

alisertib = compound: COc1cc(Nc2ncc3c(n2)-c2ccc(Cl)cc2C(c2c(F)cccc2OC)=NC3)ccc1C(=O)O [alisertib]
Method in brief: as §1

gefitinib = compound: COc1cc2ncnc(Nc3ccc(F)c(Cl)c3)c2cc1OCCCN1CCOCC1 [gefitinib]
Method in brief: as §1

[3] = compound: COc1cccc2cc(-c3nc([C@H]4CC[C@H](C(=O)O)CC4)n4ncnc(N)c34)[nH]c12
Method in brief: as §1

pictilisib = compound: CS(=O)(=O)N1CCN(Cc2cc3nc(-c4cccc5[nH]ncc45)nc(N4CCOCC4)c3s2)CC1 [pictilisib]
Method in brief: as §1

defactinib = compound: CNC(=O)c1ccc(Nc2ncc(C(F)(F)F)c(NCc3nccnc3N(C)S(C)(=O)=O)n2)cc1 [defactinib]
Method in brief: as §1

[4] = compound: COC(=O)[C@H](CCSC)NC(=O)C1=C(C=C(C=C1)NC[C@H](CS)N)C2=CC=CC=C2
Method in brief: as §1

[5] = compound: COC1=CC=C(C=C1)CN2C=CC3=C2C=C(C=C3)C(=O)NO
Method in brief: as §1

[6] = compound: COc1cc2nc(-c3cc(F)ccc3O)nc(N[C@@H]3CNC[C@H]3C(C)(C)O)c2cc1OC
Method in brief: as §1

lapatinib = compound: CS(=O)(=O)CCNCc1ccc(-c2ccc3ncnc(Nc4ccc(OCc5cccc(F)c5)c(Cl)c4)c3c2)o1 [lapatinib]
Method in brief: as §1

Measured: log2 fold change

HDAC5 isoform 3 (UniProt Q9UQL6)
inactive: saracatinib -0.02 | sotrastaurin -0.088 | alvocidib -0.283 | Tubastatin A 0.062 | [1] -0.166 | rucaparib 0.256 | [2] -0.238 | encorafenib -0.06 | filanesib 0.108 | zotarolimus 0.055 | idasanutlin 0.001 | alisertib -0.408 | gefitinib 0.066 | [3] -0.054 | pictilisib -0.113

GSPT2 (UniProt Q8IYD1)
inactive: saracatinib 0.147 | sotrastaurin -0.005 | alvocidib -0.307 | [1] 0.08 | defactinib 0.057 | rucaparib 0.02 | [2] 0.051 | encorafenib 0.045 | [4] -0.065 | [5] -0.075 | filanesib -0.024 | zotarolimus -0.06 | idasanutlin -0.041 | alisertib 0.058 | [6] 0.089 | gefitinib -0.016 | [3] 0.064 | lapatinib 0.037 | pictilisib 0.176

GSTO1 (UniProt P78417)
inactive: saracatinib 0.027 | sotrastaurin 0.094 | Tubastatin A -0.021 | [1] -0.034 | defactinib 0.001 | rucaparib -0.09 | [2] -0.004 | encorafenib 0.001 | [4] 0 | [5] -0.015 | filanesib -0.031 | zotarolimus -0.017 | idasanutlin -0.037 | alisertib -0.063 | [6] -0.048 | gefitinib -0.001 | [3] 0.021 | lapatinib 0.02 | pictilisib -0.033

GTF3C6 (UniProt Q969F1)
inactive: saracatinib 0.051 | sotrastaurin -0.003 | alvocidib 0.07 | Tubastatin A 0.068 | defactinib -0.103 | rucaparib 0.04 | [2] -0.05 | encorafenib -0.017 | [4] 0.007 | [5] -0.095 | filanesib 0.034 | zotarolimus 0.162 | alisertib -0.249 | [6] 0.03 | gefitinib -0.102 | [3] -0.032 | lapatinib 0.043 | pictilisib 0.017

HDGFL3 (UniProt Q9Y3E1)
inactive: saracatinib -0.019 | sotrastaurin -0.014 | alvocidib 0.064 | Tubastatin A -0.053 | [1] -0.017 | defactinib -0.008 | rucaparib 0.007 | [2] -0.012 | encorafenib -0.073 | [4] 0.025 | [5] 0.002 | filanesib -0.032 | zotarolimus -0.046 | idasanutlin -0.039 | alisertib -0.052 | [6] 0.022 | gefitinib 0.016 | [3] 0.026 | lapatinib -0.007 | pictilisib 0.013

GTF2H4 (UniProt Q92759)
inactive: saracatinib -0.05 | sotrastaurin 0.089 | alvocidib -0.061 | Tubastatin A -0.084 | defactinib -0.049 | rucaparib 0.306 | [2] 0.035 | encorafenib -0.459 | [4] 0.172 | filanesib 0.122 | zotarolimus 0.084 | idasanutlin 0.009 | alisertib -0.153 | [6] 0.193 | gefitinib 0.096 | [3] 0.182 | lapatinib -0.018 | pictilisib -0.094

HEATR5A (UniProt Q86XA9)
inactive: saracatinib 0 | sotrastaurin -0.168 | alvocidib 0 | Tubastatin A -0.086 | [1] -0.013 | defactinib -0.081 | rucaparib -0.053 | [2] 0.012 | encorafenib 0.149 | [4] 0.08 | [5] -0.214 | filanesib -0.141 | zotarolimus 0.107 | idasanutlin -0.043 | alisertib -0.034 | [6] -0.107 | gefitinib -0.106 | [3] -0.239 | lapatinib 0.076 | pictilisib -0.027

GSTM3 (UniProt P21266)
inactive: saracatinib 0.085 | sotrastaurin -0.032 | alvocidib -0.004 | Tubastatin A -0.018 | [1] -0.046 | defactinib -0.027 | rucaparib 0.027 | [2] 0.02 | encorafenib 0.045 | [4] 0.039 | filanesib -0.07 | zotarolimus 0.03 | idasanutlin 0.056 | alisertib 0.09 | [6] 0.163 | gefitinib 0.047 | [3] 0.007 | lapatinib -0.182 | pictilisib 0.261

GTF2I (UniProt P78347)
inactive: saracatinib -0.009 | sotrastaurin -0.16 | alvocidib 0.031 | Tubastatin A 0.232 | [1] -0.012 | defactinib -0.073 | rucaparib 0.269 | [2] -0.067 | encorafenib -0.127 | [4] -0.164 | [5] -0.09 | filanesib 0.236 | zotarolimus 0.027 | idasanutlin 0.218 | alisertib -0.016 | [6] -0.185 | gefitinib 0.022 | [3] -0.254 | lapatinib 0.129 | pictilisib 0.028

HAUS6 (UniProt Q7Z4H7)
inactive: saracatinib -0.104 | sotrastaurin -0.057 | alvocidib 0 | Tubastatin A -0.146 | [1] -0.05 | rucaparib 0.252 | [2] 0.085 | encorafenib 0.256 | [5] -0.069 | filanesib 0.265 | zotarolimus 0.073 | idasanutlin -0.041 | alisertib 0.049 | [6] -0.245 | gefitinib 0.076 | [3] -0.173 | lapatinib 0.173

HDLBP (UniProt Q00341)
inactive: saracatinib -0.162 | sotrastaurin -0.181 | alvocidib 0.117 | Tubastatin A 0.082 | [1] 0.035 | defactinib 0.194 | rucaparib 0.499 | [2] 0.057 | encorafenib 0.246 | [4] -0.03 | [5] -0.088 | filanesib 0.405 | zotarolimus 0.148 | idasanutlin 0.089 | alisertib 0.027 | [6] 0 | gefitinib 0.027 | [3] -0.104 | lapatinib 0.107 | pictilisib -0.048

HEBP2 (UniProt Q9Y5Z4)
inactive: saracatinib 0.045 | sotrastaurin 0.019 | alvocidib -0.038 | Tubastatin A -0.043 | [1] -0.019 | defactinib 0.006 | rucaparib -0.118 | [2] -0.017 | encorafenib -0.013 | [4] 0.045 | [5] -0.033 | filanesib -0.014 | zotarolimus -0.004 | idasanutlin -0.003 | alisertib -0.031 | [6] 0 | gefitinib 0.013 | [3] 0.022 | lapatinib -0.009 | pictilisib 0.05

GSTM5 (UniProt P46439)
inactive: saracatinib 0.121 | sotrastaurin 0.025 | alvocidib 0.135 | Tubastatin A -0.017 | [1] -0.013 | defactinib 0.015 | [2] -0.166 | [4] 0.044 | [5] 0.033 | filanesib -0.209 | zotarolimus 0.178 | idasanutlin 0.032 | alisertib 0.173 | [6] 0.049 | gefitinib 0.149 | [3] -0.288 | lapatinib 0.017 | pictilisib 0.053

GTF3C1 (UniProt Q12789)
inactive: saracatinib -0.125 | sotrastaurin -0.265 | alvocidib 0.103 | Tubastatin A 0.182 | [1] -0.169 | defactinib 0.011 | rucaparib -0.337 | [2] -0.049 | encorafenib 0.238 | [4] 0.038 | [5] 0.101 | filanesib 0.207 | zotarolimus -0.26 | idasanutlin -0.221 | alisertib -0.165 | [6] 0.154 | gefitinib 0.017 | [3] 0.054 | lapatinib -0.332 | pictilisib 0.149

HAL (UniProt P42357)
inactive: saracatinib -0.393 | sotrastaurin -0.059 | alvocidib -0.24 | Tubastatin A 0.093 | defactinib -0.003 | rucaparib -0.137 | [2] 0 | encorafenib -0.209 | [4] -0.135 | filanesib -0.054 | zotarolimus -0.193 | idasanutlin 0.164 | alisertib 1.03 | [6] 0.071 | gefitinib 0.21 | [3] -0.004 | lapatinib -0.091

Looked up one by one from the entries so far (2):
HDLBP (UniProt Q00341)
inactive: saracatinib -0.162 | sotrastaurin -0.181 | alvocidib 0.117 | Tubastatin A 0.082 | [1] 0.035 | defactinib 0.194 | rucaparib 0.499 | [2] 0.057 | encorafenib 0.246 | [4] -0.03 | [5] -0.088 | filanesib 0.405 | zotarolimus 0.148 | idasanutlin 0.089 | alisertib 0.027 | [6] 0 | gefitinib 0.027 | [3] -0.104 | lapatinib 0.107 | pictilisib -0.048

HEATR5A (UniProt Q86XA9)
inactive: saracatinib 0 | sotrastaurin -0.168 | alvocidib 0 | Tubastatin A -0.086 | [1] -0.013 | defactinib -0.081 | rucaparib -0.053 | [2] 0.012 | encorafenib 0.149 | [4] 0.08 | [5] -0.214 | filanesib -0.141 | zotarolimus 0.107 | idasanutlin -0.043 | alisertib -0.034 | [6] -0.107 | gefitinib -0.106 | [3] -0.239 | lapatinib 0.076 | pictilisib -0.027

(cont.)

HERC4 (UniProt Q5GLZ8)
inactive: saracatinib 0.07 | sotrastaurin -0.002 | alvocidib -0.075 | Tubastatin A 0.006 | [1] -0.01 | defactinib -0.034 | rucaparib -0.03 | [2] -0.038 | encorafenib 0.021 | [4] -0.025 | [5] 0.041 | filanesib -0.051 | zotarolimus -0.007 | idasanutlin -0.091 | alisertib 0.028 | [6] -0.003 | gefitinib 0.003 | [3] 0.019 | lapatinib 0.033 | pictilisib 0.029

HERC2 (UniProt O95714)
inactive: saracatinib -0.088 | sotrastaurin -0.018 | alvocidib 0.21 | Tubastatin A 0.036 | defactinib 0.274 | rucaparib 0.18 | [2] 0.189 | encorafenib 0.053 | [4] 0.039 | [5] -0.073 | filanesib 0.162 | zotarolimus 0.006 | idasanutlin 0.237 | alisertib 0.07 | [6] -0.131 | gefitinib -0.02 | [3] 0.029 | lapatinib 0.201 | pictilisib 0.045
